Reference: the supplement of paper PMC7661543
± gives the standard deviation of the averaged measurements. Differences between knockout arms are mostly noise.

Tested on: MDA-MB-231
Assay: relative cell number vs DMSO control (72 h) (% of DMSO); higher = less growth inhibition (more cells)
Procedure: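 QMAP-Seq: a pool of 5 breast cancer cell lines (ZR-75-1, SKBR3, HCC-38, MDA-MB-231, BT-20), each carrying 12 doxycycline-inducible Cas9 sgRNA perturbations (11 knockouts plus non-targeting sgNT), was treated with compounds for 72 h at four 10-fold doses (10 nM-10 uM or 1 nM-1 uM range). Barcodes were amplified and sequenced, and cell number was interpolated from 293T spike-in standard curves. The result is expressed as % of the median of DMSO wells. Two biological replicates.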

Nc1nc(Cl)nc2c1ncn2[C@@H]1O[C@H](CO)[C@@H](O)[C@@H]1F [Clofarabine]
Conditions	relative cell number
sgRNA knockout: sgATF3, 10 nM	73.5 ± 1.5
sgRNA knockout: sgATF3, 100 nM	34.9 ± 12
sgRNA knockout: sgATF3, 1000 nM	15.8 ± 1
sgRNA knockout: sgATF3, 10000 nM	14.2 ± 2.9
sgRNA knockout: sgATF4, 10 nM	72.2 ± 52
sgRNA knockout: sgATF4, 100 nM	41.1 ± 6.7
sgRNA knockout: sgATF4, 1000 nM	19.3 ± 3.5
sgRNA knockout: sgATF4, 10000 nM	18.8 ± 8.9
sgRNA knockout: sgATF6, 10 nM	73.3 ± 3.3
sgRNA knockout: sgATF6, 100 nM	38.5 ± 5.8
sgRNA knockout: sgATF6, 1000 nM	14.5 ± 3.5
sgRNA knockout: sgATF6, 10000 nM	12.9 ± 2.7
sgRNA knockout: sgATG7, 10 nM	98.3 ± 12
sgRNA knockout: sgATG7, 100 nM	34.6 ± 1.8
sgRNA knockout: sgATG7, 1000 nM	17.7 ± 0.41
sgRNA knockout: sgATG7, 10000 nM	13.5 ± 0.64
sgRNA knockout: sgERN1, 10 nM	86.5 ± 7.6
sgRNA knockout: sgERN1, 100 nM	30.8 ± 5.8
sgRNA knockout: sgERN1, 1000 nM	14.2 ± 2.9
sgRNA knockout: sgERN1, 10000 nM	12.8 ± 2.5
sgRNA knockout: sgHSF1, 10 nM	85.6 ± 6.6
sgRNA knockout: sgHSF1, 100 nM	36 ± 5.9
sgRNA knockout: sgHSF1, 1000 nM	12.2 ± 4.4
sgRNA knockout: sgHSF1, 10000 nM	17.6 ± 0.11
sgRNA knockout: sgHSF2, 10 nM	93 ± 21
sgRNA knockout: sgHSF2, 100 nM	29.7 ± 5.1
sgRNA knockout: sgHSF2, 1000 nM	16 ± 3.3
sgRNA knockout: sgHSF2, 10000 nM	17.1 ± 3.6
sgRNA knockout: sgKEAP1, 10 nM	90.3 ± 29
sgRNA knockout: sgKEAP1, 100 nM	33 ± 8.2
sgRNA knockout: sgKEAP1, 1000 nM	11.9 ± 2.1
sgRNA knockout: sgKEAP1, 10000 nM	15.1 ± 1.8
sgRNA knockout: sgNFE2L2, 10 nM	93.4 ± 10
sgRNA knockout: sgNFE2L2, 100 nM	36 ± 9.9
sgRNA knockout: sgNFE2L2, 1000 nM	14.8 ± 5.9
sgRNA knockout: sgNFE2L2, 10000 nM	20.7 ± 0.86
sgRNA knockout: sgSLC35F2, 10 nM	76.6 ± 3.4
sgRNA knockout: sgSLC35F2, 100 nM	30.5 ± 2.8
sgRNA knockout: sgSLC35F2, 1000 nM	10.6 ± 4.6
sgRNA knockout: sgSLC35F2, 10000 nM	12.2 ± 1
sgRNA knockout: sgXBP1, 10 nM	70.2 ± 7.6
sgRNA knockout: sgXBP1, 100 nM	28.2 ± 12
sgRNA knockout: sgXBP1, 1000 nM	18.19 ± 0.11
sgRNA knockout: sgXBP1, 10000 nM	15.5 ± 1.6

CCOC(=O)[C@@]1(CCCCCCOc2ccc(Cl)cc2)CO1 [Etomoxir]
Conditions	relative cell number
sgRNA knockout: sgATF3, 10 nM	95.7 ± 43
sgRNA knockout: sgATF3, 100 nM	104 ± 19
sgRNA knockout: sgATF3, 1000 nM	92.6 ± 2.8
sgRNA knockout: sgATF3, 10000 nM	79.7 ± 3.8
sgRNA knockout: sgATF4, 10 nM	101 ± 11
sgRNA knockout: sgATF4, 100 nM	161 ± 24
sgRNA knockout: sgATF4, 1000 nM	152 ± 30
sgRNA knockout: sgATF4, 10000 nM	113 ± 6.2
sgRNA knockout: sgATF6, 10 nM	93 ± 2.2
sgRNA knockout: sgATF6, 100 nM	94.6 ± 29
sgRNA knockout: sgATF6, 1000 nM	98.3 ± 16
sgRNA knockout: sgATF6, 10000 nM	98.3 ± 34
sgRNA knockout: sgATG7, 10 nM	98.73 ± 0.22
sgRNA knockout: sgATG7, 100 nM	99.8 ± 4.7
sgRNA knockout: sgATG7, 1000 nM	101.2 ± 0.49
sgRNA knockout: sgATG7, 10000 nM	79.73 ± 0.33
sgRNA knockout: sgERN1, 10 nM	86.9 ± 13
sgRNA knockout: sgERN1, 100 nM	106 ± 26
sgRNA knockout: sgERN1, 1000 nM	77.8 ± 8.7
sgRNA knockout: sgERN1, 10000 nM	90.6 ± 2.2
sgRNA knockout: sgHSF1, 10 nM	97.6 ± 9.8
sgRNA knockout: sgHSF1, 100 nM	111 ± 16
sgRNA knockout: sgHSF1, 1000 nM	114 ± 1.3
sgRNA knockout: sgHSF1, 10000 nM	91.5 ± 9
sgRNA knockout: sgHSF2, 10 nM	97.4 ± 24
sgRNA knockout: sgHSF2, 100 nM	107 ± 37
sgRNA knockout: sgHSF2, 1000 nM	100 ± 20
sgRNA knockout: sgHSF2, 10000 nM	95.8 ± 11
sgRNA knockout: sgKEAP1, 10 nM	98.25 ± 0.36
sgRNA knockout: sgKEAP1, 100 nM	93.5 ± 14
sgRNA knockout: sgKEAP1, 1000 nM	99.5 ± 15
sgRNA knockout: sgKEAP1, 10000 nM	93.4 ± 1.9
sgRNA knockout: sgNFE2L2, 10 nM	95.4 ± 10
sgRNA knockout: sgNFE2L2, 100 nM	125.3 ± 0.65
sgRNA knockout: sgNFE2L2, 1000 nM	118.3 ± 0.64
sgRNA knockout: sgNFE2L2, 10000 nM	98.4 ± 20
sgRNA knockout: sgSLC35F2, 10 nM	97 ± 8.6
sgRNA knockout: sgSLC35F2, 100 nM	83.8 ± 1.6
sgRNA knockout: sgSLC35F2, 1000 nM	108 ± 5.4
sgRNA knockout: sgSLC35F2, 10000 nM	101.8 ± 0.11
sgRNA knockout: sgXBP1, 10 nM	93.14 ± 0.25
sgRNA knockout: sgXBP1, 100 nM	106.2 ± 0.58
sgRNA knockout: sgXBP1, 1000 nM	98.2 ± 13
sgRNA knockout: sgXBP1, 10000 nM	77.3 ± 15

C=CCn1c(=O)c2cnc(Nc3ccc(N4CCN(C)CC4)cc3)nc2n1-c1cccc(C(C)(C)O)n1 [MK1775]
Conditions	relative cell number
sgRNA knockout: sgATF3, 10 nM	85.47 ± 0.6
sgRNA knockout: sgATF3, 100 nM	98.1 ± 20
sgRNA knockout: sgATF3, 1000 nM	24.304 ± 0.023
sgRNA knockout: sgATF3, 10000 nM	13 ± 2.1
sgRNA knockout: sgATF4, 10 nM	118 ± 36
sgRNA knockout: sgATF4, 100 nM	73.7 ± 9.8
sgRNA knockout: sgATF4, 1000 nM	20.9 ± 3.7
sgRNA knockout: sgATF4, 10000 nM	8.04 ± 1.9
sgRNA knockout: sgATF6, 10 nM	97.2 ± 38
sgRNA knockout: sgATF6, 100 nM	92.8 ± 16
sgRNA knockout: sgATF6, 1000 nM	17 ± 5.8
sgRNA knockout: sgATF6, 10000 nM	9.51 ± 0.87
sgRNA knockout: sgATG7, 10 nM	85.8 ± 8.8
sgRNA knockout: sgATG7, 100 nM	102 ± 14
sgRNA knockout: sgATG7, 1000 nM	21.8 ± 2.6
sgRNA knockout: sgATG7, 10000 nM	8.46 ± 1.9
sgRNA knockout: sgERN1, 10 nM	84.9 ± 8.9
sgRNA knockout: sgERN1, 100 nM	98.6 ± 1.1
sgRNA knockout: sgERN1, 1000 nM	23.9 ± 4.3
sgRNA knockout: sgERN1, 10000 nM	7.63 ± 0.21
sgRNA knockout: sgHSF1, 10 nM	90.7 ± 8.7
sgRNA knockout: sgHSF1, 100 nM	81.9 ± 9
sgRNA knockout: sgHSF1, 1000 nM	26.72 ± 0.24
sgRNA knockout: sgHSF1, 10000 nM	9.39 ± 2.9
sgRNA knockout: sgHSF2, 10 nM	82.4 ± 7.6
sgRNA knockout: sgHSF2, 100 nM	96.7 ± 6.1
sgRNA knockout: sgHSF2, 1000 nM	19.7 ± 2.1
sgRNA knockout: sgHSF2, 10000 nM	11 ± 2.1
sgRNA knockout: sgKEAP1, 10 nM	85.9 ± 16
sgRNA knockout: sgKEAP1, 100 nM	100 ± 13
sgRNA knockout: sgKEAP1, 1000 nM	25.2 ± 7
sgRNA knockout: sgKEAP1, 10000 nM	11.09 ± 0.068
sgRNA knockout: sgNFE2L2, 10 nM	72 ± 5.2
sgRNA knockout: sgNFE2L2, 100 nM	86.5 ± 8.9
sgRNA knockout: sgNFE2L2, 1000 nM	23.4 ± 3.5
sgRNA knockout: sgNFE2L2, 10000 nM	9.31 ± 2
sgRNA knockout: sgSLC35F2, 10 nM	85.03 ± 0.53
sgRNA knockout: sgSLC35F2, 100 nM	72.7 ± 17
sgRNA knockout: sgSLC35F2, 1000 nM	18.9 ± 5.1
sgRNA knockout: sgSLC35F2, 10000 nM	13.1 ± 2.7
sgRNA knockout: sgXBP1, 10 nM	91.3 ± 17
sgRNA knockout: sgXBP1, 100 nM	107 ± 0.18
sgRNA knockout: sgXBP1, 1000 nM	24.6 ± 8.6
sgRNA knockout: sgXBP1, 10000 nM	10.6 ± 0.98
